The supplement of paper PMC8728848
The list shows a part of the results.

How the values were obtained:
Assay in all cases: glycan array binding signal (z-score within array); higher = stronger binding
Conditions in all cases: glycan notation: IUPAC condensed, linker removed
[1] = target: Neu5Ac(a2-3)Gal(b1-4)GlcNAc(b1-2)[Neu5Ac(a2-3)Gal(b1-4)GlcNAc(b1-4)]Man(a1-3)[GlcNAc(b1-4)][Neu5Ac(a2-3)Gal(b1-4)GlcNAc(b1-4)Man(a1-6)]Man(b1-4)GlcNAc(b1-4)GlcNAc
How it was run: (§1)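 Glycan array data came from 3228 arrays in the Consortium for Functional Glycomics database, and only arrays with an available protein sequence were kept. Glycan names were put into IUPAC-condensed notation, and columns mapping to the same glycan were averaged. The binding signal is a within-array Z-score, averaged across arrays of one protein sequence run at different concentrations or buffers and across linkers. A negative Z-score can be read as non-binding.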

[2] = target: Neu5Ac(a2-3)Gal(b1-4)GlcNAc(b1-2)[Neu5Ac(a2-3)Gal(b1-4)GlcNAc(b1-6)]Man(a1-6)[Neu5Ac(a2-3)Gal(b1-4)GlcNAc(b1-2)Man(a1-3)]Man(b1-4)GlcNAc(b1-4)GlcNAc
How it was run: as §1

[3] = target: Neu5Ac(a2-3)Gal(b1-4)GlcNAc(b1-2)[Neu5Ac(a2-3)Gal(b1-4)GlcNAc(b1-6)]Man(a1-6)[Neu5Ac(a2-3)Gal(b1-4)GlcNAc(b1-2)Man(a1-3)][GlcNAc(b1-4)]Man(b1-4)GlcNAc(b1-4)GlcNAc
How it was run: as §1

[4] = target: Neu5Ac(a2-3)Gal(b1-4)GlcNAc(b1-3)Gal
How it was run: as §1

[5] = target: Neu5Ac(a2-3)Gal(b1-4)GlcNAc(b1-3)Gal(b1-3)GlcNAc
How it was run: as §1

[6] = target: Neu5Ac(a2-3)Gal(b1-4)GlcNAc(b1-3)Gal(b1-4)GlcNAc
How it was run: as §1

[7] = target: Neu5Ac(a2-3)Gal(b1-4)GlcNAc(b1-3)Gal(b1-4)GlcNAc(b1-2)Man(a1-3)[Neu5Ac(a2-3)Gal(b1-4)GlcNAc(b1-3)Gal(b1-4)GlcNAc(b1-2)Man(a1-6)]Man(b1-4)GlcNAc(b1-4)GlcNAc
How it was run: as §1

[8] = target: Neu5Ac(a2-3)Gal(b1-4)GlcNAc(b1-3)Gal(b1-4)GlcNAc(b1-3)Gal(b1-4)GlcNAc
How it was run: as §1

[9] = target: Neu5Ac(a2-3)Gal(b1-4)GlcNAc(b1-3)Gal(b1-4)GlcNAc(b1-3)Gal(b1-4)GlcNAc(b1-2)Man(a1-3)[Neu5Ac(a2-3)Gal(b1-4)GlcNAc(b1-3)Gal(b1-4)GlcNAc(b1-3)Gal(b1-4)GlcNAc(b1-2)Man(a1-6)]GalNAc
How it was run: as §1

[10] = target: Neu5Ac(a2-3)Gal(b1-4)GlcNAc(b1-3)Gal(b1-4)GlcNAc(b1-3)GalNAc
How it was run: as §1

[11] = target: Neu5Ac(a2-3)Gal(b1-4)GlcNAc(b1-3)Gal(b1-4)GlcNAc(b1-3)[Neu5Ac(a2-3)Gal(b1-4)GlcNAc(b1-3)Gal(b1-4)GlcNAc(b1-6)]GalNAc
How it was run: as §1

[12] = target: Neu5Ac(a2-3)Gal(b1-4)GlcNAc(b1-3)Gal(b1-4)GlcNAc(b1-6)[Gal(b1-3)]GalNAc
How it was run: as §1

[13] = target: Neu5Ac(a2-3)Gal(b1-4)GlcNAc(b1-3)Gal(b1-4)[Fuc(a1-3)]GlcNAc
How it was run: as §1

[14] = target: Neu5Ac(a2-3)Gal(b1-4)GlcNAc(b1-3)GalNAc
How it was run: as §1

[15] = target: Neu5Ac(a2-3)Gal(b1-4)GlcNAc(b1-3)[Neu5Ac(a2-3)Gal(b1-4)GlcNAc(b1-6)]GalNAc
How it was run: as §1

[16] = target: Neu5Ac(a2-3)Gal(b1-4)GlcNAc(b1-6)GalNAc
How it was run: as §1

[17] = target: Neu5Ac(a2-3)Gal(b1-4)GlcNAc(b1-6)[Gal(b1-3)]GalNAc
How it was run: as §1

[18] = target: Neu5Ac(a2-3)Gal(b1-4)GlcNAc(b1-6)[Neu5Ac(a2-3)Gal(b1-3)]GalNAc
How it was run: as §1

[19] = target: Neu5Ac(a2-3)Gal(b1-4)GlcNAc6S
How it was run: as §1

[20] = target: Neu5Ac(a2-3)Gal(b1-4)[Fuc(a1-3)]GlcNAc
How it was run: as §1

[21] = target: Neu5Ac(a2-3)Gal(b1-4)[Fuc(a1-3)]GlcNAc(b1-2)Man
How it was run: as §1

[22] = target: Neu5Ac(a2-3)Gal(b1-4)[Fuc(a1-3)]GlcNAc(b1-3)Gal
How it was run: as §1

[23] = target: Neu5Ac(a2-3)Gal(b1-4)[Fuc(a1-3)]GlcNAc(b1-3)Gal(b1-4)GlcNAc
How it was run: as §1

[24] = target: Neu5Ac(a2-3)Gal(b1-4)[Fuc(a1-3)]GlcNAc(b1-3)Gal(b1-4)[Fuc(a1-3)]GlcNAc(b1-3)Gal(b1-4)[Fuc(a1-3)]GlcNAc
How it was run: as §1

[25] = target: Neu5Ac(a2-3)Gal(b1-4)[Fuc(a1-3)]GlcNAc(b1-3)GalNAc
How it was run: as §1

[26] = target: Neu5Ac(a2-3)Gal(b1-4)[Fuc(a1-3)]GlcNAc(b1-6)[Gal(b1-3)]GalNAc
How it was run: as §1

[27] = target: Neu5Ac(a2-3)Gal(b1-4)[Fuc(a1-3)]GlcNAc(b1-6)[Neu5Ac(a2-3)Gal(b1-3)]GalNAc
How it was run: as §1

[28] = target: Neu5Ac(a2-3)Gal(b1-4)[Fuc(a1-3)]GlcNAc6S
How it was run: as §1

[29] = target: Neu5Ac(a2-3)Gal6S(b1-4)GlcNAc
How it was run: as §1

[30] = target: Neu5Ac(a2-3)Gal6S(b1-4)[Fuc(a1-3)]GlcNAc
How it was run: as §1

[31] = target: Neu5Ac(a2-3)GalNAc
How it was run: as §1

[32] = target: Neu5Ac(a2-3)GalNAc(b1-4)GlcNAc
How it was run: as §1

[33] = target: Neu5Ac(a2-3)[GalNAc(b1-4)]Gal(b1-4)Glc
How it was run: as §1

[34] = target: Neu5Ac(a2-3)[GalNAc(b1-4)]Gal(b1-4)GlcNAc
How it was run: as §1

[35] = target: Neu5Ac(a2-3)[GalNAc(b1-4)]Gal(b1-4)GlcNAc(b1-3)GalNAc
How it was run: as §1

[36] = target: Neu5Ac(a2-3)[Neu5Ac(a2-6)]GalNAc
How it was run: as §1

[37] = target: Neu5Ac(a2-6)Gal
How it was run: as §1

B1: TAL6-4LysM (Trichoderma atroviride) (protein)
chain: AADSIPSISPTGIITPTPTQSGMVSNCNKFYDVHSNDGCSAIASSQHVDLSSLYKWNPAIKTDCSGLQASVYVCIGILTTSMSTTSKLPTTTSKPSTTSKPPTGITTPTPTQSGMVKNCNKFYDVHSGDGCSAIASSQKVNLSSFYLWNPAVKTDCSGLQASVFVCIGTLTTSMSTTTSKLPTTTSKPSTTSKPPTGIITPTPTQNGMVKNCNKFYDVHSGDGCSAIASSQKVNLSSFYLWNPAVKTDCSGLQASVFVCVGTATTTTAAGITTPTPTQSGMVSGCNKFYDVHAGDGCSAIASSQKIALSSLYKWNPAVKTDCSGLQASVYICIGVGNAAAARVTGALEQKLISEEDLNSAVDHHHHHH
glycan array binding signal (z-score) [1]: 0.34 | glycan array binding signal (z-score) [2]: 0.741 | glycan array binding signal (z-score) [3]: -0.364 | glycan array binding signal (z-score) [4]: -1.25 | glycan array binding signal (z-score) [5]: -0.879 | glycan array binding signal (z-score) [6]: 0.077 | glycan array binding signal (z-score) [7]: 2.52 | glycan array binding signal (z-score) [8]: -0.019 | glycan array binding signal (z-score) [9]: 1.49 | glycan array binding signal (z-score) [10]: -0.304 | glycan array binding signal (z-score) [11]: -0.672 | glycan array binding signal (z-score) [12]: 0.318 | glycan array binding signal (z-score) [13]: 0.332 | glycan array binding signal (z-score) [14]: 0.334 | glycan array binding signal (z-score) [15]: -2.22 | glycan array binding signal (z-score) [16]: 0.12 | glycan array binding signal (z-score) [17]: -0.586 | glycan array binding signal (z-score) [18]: -1.46 | glycan array binding signal (z-score) [19]: 0.471 | glycan array binding signal (z-score) [20]: -0.955 | glycan array binding signal (z-score) [21]: -1.26 | glycan array binding signal (z-score) [22]: 0.373 | glycan array binding signal (z-score) [23]: 2 | glycan array binding signal (z-score) [24]: -0.188 | glycan array binding signal (z-score) [25]: -0.18 | glycan array binding signal (z-score) [26]: -0.34 | glycan array binding signal (z-score) [27]: -0.872 | glycan array binding signal (z-score) [28]: 1.11 | glycan array binding signal (z-score) [29]: 0.867 | glycan array binding signal (z-score) [30]: -1.06 | glycan array binding signal (z-score) [31]: 0.413 | glycan array binding signal (z-score) [32]: 0.198 | glycan array binding signal (z-score) [33]: -1.03 | glycan array binding signal (z-score) [34]: -0.761 | glycan array binding signal (z-score) [35]: 0.779 | glycan array binding signal (z-score) [36]: -0.633 | glycan array binding signal (z-score) [37]: -0.128
